Reference: PMC8294330
Construct, isoform or probe ends are uncertain for at least one entry. For some of these results: At least one verdict rests on a figure or table, not on a statement of the authors.

Tests used:
PNPase WT + Hfq [1] = experiment: cryo-EM; conditions: 2D class averages only; recombinant protein; probe letters rebuilt from the primers and the genome; part of a longer molecule
PNPase WT + Hfq [2] = experiment: EMSA; conditions: 400 nM RNA, 400 nM Hfq hexamer, ternary complex, EMSA: 0.4 uM RNA, PNPase trimer 1:1 and 3:1 over RNA, 20 mM Tris pH 7.5, 100 mM NaCl, 1 mM MgCl2, 1 mM DTT, 30 C 20 min, native PAA gel with 10% glycerol, recombinant protein

Sequence | binding result (PNPase WT + Hfq [2]) | further results
ACUUCCUGAGCCGGAACGAAAAGUUUUAUCGGAAUGCGUGUUCUGGUGAACUUUUGGCUUACGGUUGUGAUGUUGUGUUGUUGUGUUUGCAAUUGGUCUGCGAUUCAGACCAUGGUAGCAAAGCUACCUUUUUUCACUUCCUGUACAUUUACCCUGUCUGUCCAUAGUGAUUAAUGUAGCACCGCCUAAUUGCGGUGCUUUUUUUU [GcvB] | – | binding result (PNPase WT + Hfq [1]): binds
GCGAUCAGGAAGACCCUCGCGGAGAACCUGAAAGCACGACAUUGCUCACAUUGCUUCCAGUAUUACUUAGCCAGCCGGGUGCUGGCUUUUUUUUU [RyhB] | – | binding result (PNPase WT + Hfq [2]; probe letters rebuilt from the primers and the genome): binds
GGGAAAGAUAAGAAUAAAAUCAAAGCAAUAAGCAGUGUCGUGAAACCACCUUCGGGUGGUUUUUUU [3'ETSleuZ] | binds | –
GCUGAAAAACAUAACCCAUAAAAUGCUAGCUGUACCAGGAACCACCUCCUUAGCCUGUGUAAUCUCCCUUACACGGGCUUAUUUUUU [CyaR] | binds | –
